Measurements reported in the supplement of paper PMC11006884.
The list shows a part of the results, in another mix than the full data. Single values of this set are uncertain.

The chains behind the UniProt entries cited, without tags or fusion partners. Where a name states a change or a piece, a line headed by the entry shows the natural chain unless it says otherwise.
UniProt Q96HE7: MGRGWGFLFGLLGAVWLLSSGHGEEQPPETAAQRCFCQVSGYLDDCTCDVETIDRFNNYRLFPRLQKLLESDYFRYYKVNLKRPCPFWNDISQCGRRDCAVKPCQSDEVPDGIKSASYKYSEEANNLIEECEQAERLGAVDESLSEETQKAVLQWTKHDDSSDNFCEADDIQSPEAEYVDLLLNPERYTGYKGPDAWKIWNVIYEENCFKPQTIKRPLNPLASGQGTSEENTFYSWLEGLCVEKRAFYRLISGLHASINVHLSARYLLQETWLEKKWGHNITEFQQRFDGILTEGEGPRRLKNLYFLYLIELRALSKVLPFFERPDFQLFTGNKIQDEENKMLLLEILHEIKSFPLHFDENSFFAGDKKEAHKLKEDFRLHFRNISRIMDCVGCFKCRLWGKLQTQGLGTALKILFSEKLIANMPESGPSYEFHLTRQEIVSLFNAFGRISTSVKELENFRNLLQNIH
UniProt Q92621: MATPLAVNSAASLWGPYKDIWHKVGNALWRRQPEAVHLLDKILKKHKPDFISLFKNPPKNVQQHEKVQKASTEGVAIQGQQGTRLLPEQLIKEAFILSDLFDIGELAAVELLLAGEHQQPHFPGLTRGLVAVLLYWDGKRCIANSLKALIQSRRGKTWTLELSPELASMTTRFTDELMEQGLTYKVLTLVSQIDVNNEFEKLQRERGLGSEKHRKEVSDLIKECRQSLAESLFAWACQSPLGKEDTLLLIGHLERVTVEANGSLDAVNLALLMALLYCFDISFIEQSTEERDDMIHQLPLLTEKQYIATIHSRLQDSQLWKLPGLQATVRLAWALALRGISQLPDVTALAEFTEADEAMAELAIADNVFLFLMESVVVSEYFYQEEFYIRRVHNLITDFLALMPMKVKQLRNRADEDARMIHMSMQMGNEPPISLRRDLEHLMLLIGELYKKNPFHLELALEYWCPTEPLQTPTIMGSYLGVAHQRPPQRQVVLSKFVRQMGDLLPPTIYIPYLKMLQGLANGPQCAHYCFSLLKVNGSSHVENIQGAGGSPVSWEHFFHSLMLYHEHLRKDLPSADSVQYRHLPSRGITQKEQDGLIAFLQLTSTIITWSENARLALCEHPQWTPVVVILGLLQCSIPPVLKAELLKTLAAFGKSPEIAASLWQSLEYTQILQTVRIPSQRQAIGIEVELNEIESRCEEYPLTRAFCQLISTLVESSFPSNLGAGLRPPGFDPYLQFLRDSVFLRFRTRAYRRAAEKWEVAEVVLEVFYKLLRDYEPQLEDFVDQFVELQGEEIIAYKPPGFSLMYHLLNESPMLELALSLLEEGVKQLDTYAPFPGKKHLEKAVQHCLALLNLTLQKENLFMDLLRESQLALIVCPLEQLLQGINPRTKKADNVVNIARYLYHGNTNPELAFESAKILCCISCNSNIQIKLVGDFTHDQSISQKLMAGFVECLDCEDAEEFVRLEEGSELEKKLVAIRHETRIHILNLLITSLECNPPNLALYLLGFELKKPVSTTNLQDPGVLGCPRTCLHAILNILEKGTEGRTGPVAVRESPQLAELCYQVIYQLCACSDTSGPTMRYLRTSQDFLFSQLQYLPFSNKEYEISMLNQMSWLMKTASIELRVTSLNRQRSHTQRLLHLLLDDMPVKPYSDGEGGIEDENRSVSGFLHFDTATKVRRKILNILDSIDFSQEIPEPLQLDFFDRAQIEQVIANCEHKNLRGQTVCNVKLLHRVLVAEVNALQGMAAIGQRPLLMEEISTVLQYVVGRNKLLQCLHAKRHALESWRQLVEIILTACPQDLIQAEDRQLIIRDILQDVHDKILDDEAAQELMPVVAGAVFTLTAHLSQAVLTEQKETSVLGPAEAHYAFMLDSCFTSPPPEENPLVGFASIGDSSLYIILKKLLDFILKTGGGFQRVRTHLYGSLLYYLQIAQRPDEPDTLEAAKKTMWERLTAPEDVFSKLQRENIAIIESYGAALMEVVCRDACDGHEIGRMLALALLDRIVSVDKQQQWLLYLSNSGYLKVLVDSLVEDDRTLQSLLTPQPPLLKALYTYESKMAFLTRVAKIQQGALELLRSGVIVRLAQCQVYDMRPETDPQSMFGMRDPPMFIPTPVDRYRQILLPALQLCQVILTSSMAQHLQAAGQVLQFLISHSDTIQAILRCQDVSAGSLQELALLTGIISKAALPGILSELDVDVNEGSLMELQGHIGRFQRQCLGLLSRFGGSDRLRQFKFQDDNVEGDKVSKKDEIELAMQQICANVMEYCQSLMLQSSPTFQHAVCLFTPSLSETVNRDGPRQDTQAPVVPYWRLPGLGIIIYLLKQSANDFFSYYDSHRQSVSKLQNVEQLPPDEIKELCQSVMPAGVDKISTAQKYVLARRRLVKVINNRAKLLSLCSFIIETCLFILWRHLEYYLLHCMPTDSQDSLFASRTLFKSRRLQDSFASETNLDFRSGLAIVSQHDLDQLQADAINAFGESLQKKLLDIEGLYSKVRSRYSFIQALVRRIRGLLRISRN
UniProt Q92878: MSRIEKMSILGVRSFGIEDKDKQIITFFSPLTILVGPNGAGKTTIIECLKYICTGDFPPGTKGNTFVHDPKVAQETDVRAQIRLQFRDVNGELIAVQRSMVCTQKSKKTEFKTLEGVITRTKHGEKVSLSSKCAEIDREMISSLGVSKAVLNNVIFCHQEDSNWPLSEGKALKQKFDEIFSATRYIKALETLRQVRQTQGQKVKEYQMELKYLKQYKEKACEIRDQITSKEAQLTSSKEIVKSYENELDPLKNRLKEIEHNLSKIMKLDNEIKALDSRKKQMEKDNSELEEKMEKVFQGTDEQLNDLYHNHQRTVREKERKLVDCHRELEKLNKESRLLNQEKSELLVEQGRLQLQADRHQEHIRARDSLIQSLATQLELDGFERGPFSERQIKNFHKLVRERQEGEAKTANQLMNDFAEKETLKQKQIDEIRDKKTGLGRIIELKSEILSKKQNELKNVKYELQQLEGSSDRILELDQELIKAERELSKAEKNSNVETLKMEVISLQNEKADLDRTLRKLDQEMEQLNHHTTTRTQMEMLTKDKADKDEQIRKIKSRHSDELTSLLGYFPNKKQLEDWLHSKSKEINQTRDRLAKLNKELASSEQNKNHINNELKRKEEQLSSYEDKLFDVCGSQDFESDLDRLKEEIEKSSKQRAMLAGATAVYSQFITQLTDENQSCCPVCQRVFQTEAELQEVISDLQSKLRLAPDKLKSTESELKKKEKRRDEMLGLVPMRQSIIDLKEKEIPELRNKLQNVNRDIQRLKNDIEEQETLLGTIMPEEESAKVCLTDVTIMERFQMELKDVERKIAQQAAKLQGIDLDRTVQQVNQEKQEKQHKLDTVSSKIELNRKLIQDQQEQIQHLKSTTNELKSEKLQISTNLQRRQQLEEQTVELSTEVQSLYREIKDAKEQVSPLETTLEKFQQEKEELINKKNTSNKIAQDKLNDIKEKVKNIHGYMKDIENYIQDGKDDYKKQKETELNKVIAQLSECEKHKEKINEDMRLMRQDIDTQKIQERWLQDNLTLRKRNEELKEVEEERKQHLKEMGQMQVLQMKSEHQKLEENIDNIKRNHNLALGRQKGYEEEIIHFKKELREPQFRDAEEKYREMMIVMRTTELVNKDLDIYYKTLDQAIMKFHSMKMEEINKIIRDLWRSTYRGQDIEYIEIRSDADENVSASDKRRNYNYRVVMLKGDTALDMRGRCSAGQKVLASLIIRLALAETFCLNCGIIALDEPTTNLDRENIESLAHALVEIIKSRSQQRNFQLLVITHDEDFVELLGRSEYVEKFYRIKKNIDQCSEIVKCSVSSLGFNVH
UniProt Q969Z0: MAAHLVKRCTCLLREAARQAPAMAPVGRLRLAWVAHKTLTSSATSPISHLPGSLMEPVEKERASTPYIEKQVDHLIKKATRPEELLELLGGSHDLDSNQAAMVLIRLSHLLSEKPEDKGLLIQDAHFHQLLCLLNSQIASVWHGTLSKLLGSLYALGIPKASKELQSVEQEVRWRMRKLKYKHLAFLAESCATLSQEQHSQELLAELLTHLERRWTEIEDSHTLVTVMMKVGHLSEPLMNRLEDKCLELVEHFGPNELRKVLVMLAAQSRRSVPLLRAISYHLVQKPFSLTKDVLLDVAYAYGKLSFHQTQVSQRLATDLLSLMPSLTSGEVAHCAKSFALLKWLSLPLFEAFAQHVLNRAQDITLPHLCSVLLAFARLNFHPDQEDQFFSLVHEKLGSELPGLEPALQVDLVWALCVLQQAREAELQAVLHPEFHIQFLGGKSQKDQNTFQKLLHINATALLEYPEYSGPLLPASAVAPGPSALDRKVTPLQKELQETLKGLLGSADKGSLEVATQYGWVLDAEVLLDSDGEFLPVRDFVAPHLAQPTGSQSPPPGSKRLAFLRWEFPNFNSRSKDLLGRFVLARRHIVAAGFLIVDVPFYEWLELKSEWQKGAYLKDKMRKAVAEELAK
UniProt Q92841: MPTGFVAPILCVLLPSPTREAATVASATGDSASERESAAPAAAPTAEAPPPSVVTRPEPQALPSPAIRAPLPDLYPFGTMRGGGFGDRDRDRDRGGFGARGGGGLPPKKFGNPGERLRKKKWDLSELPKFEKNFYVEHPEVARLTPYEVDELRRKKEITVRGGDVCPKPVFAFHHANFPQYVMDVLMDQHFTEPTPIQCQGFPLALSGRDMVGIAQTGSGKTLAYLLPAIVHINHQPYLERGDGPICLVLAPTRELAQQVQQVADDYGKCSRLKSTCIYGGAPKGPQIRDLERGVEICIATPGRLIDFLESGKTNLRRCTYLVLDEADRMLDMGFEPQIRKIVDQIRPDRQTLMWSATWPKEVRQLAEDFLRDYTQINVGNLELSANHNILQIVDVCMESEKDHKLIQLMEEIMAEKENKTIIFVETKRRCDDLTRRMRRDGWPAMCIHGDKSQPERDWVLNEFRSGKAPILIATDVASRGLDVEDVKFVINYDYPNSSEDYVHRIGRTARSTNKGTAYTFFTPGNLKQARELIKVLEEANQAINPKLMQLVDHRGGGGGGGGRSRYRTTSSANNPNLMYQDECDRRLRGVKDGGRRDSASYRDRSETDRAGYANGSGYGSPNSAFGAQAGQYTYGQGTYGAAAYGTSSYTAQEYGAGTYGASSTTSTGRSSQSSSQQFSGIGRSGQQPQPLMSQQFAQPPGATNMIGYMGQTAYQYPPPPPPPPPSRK
UniProt Q92900: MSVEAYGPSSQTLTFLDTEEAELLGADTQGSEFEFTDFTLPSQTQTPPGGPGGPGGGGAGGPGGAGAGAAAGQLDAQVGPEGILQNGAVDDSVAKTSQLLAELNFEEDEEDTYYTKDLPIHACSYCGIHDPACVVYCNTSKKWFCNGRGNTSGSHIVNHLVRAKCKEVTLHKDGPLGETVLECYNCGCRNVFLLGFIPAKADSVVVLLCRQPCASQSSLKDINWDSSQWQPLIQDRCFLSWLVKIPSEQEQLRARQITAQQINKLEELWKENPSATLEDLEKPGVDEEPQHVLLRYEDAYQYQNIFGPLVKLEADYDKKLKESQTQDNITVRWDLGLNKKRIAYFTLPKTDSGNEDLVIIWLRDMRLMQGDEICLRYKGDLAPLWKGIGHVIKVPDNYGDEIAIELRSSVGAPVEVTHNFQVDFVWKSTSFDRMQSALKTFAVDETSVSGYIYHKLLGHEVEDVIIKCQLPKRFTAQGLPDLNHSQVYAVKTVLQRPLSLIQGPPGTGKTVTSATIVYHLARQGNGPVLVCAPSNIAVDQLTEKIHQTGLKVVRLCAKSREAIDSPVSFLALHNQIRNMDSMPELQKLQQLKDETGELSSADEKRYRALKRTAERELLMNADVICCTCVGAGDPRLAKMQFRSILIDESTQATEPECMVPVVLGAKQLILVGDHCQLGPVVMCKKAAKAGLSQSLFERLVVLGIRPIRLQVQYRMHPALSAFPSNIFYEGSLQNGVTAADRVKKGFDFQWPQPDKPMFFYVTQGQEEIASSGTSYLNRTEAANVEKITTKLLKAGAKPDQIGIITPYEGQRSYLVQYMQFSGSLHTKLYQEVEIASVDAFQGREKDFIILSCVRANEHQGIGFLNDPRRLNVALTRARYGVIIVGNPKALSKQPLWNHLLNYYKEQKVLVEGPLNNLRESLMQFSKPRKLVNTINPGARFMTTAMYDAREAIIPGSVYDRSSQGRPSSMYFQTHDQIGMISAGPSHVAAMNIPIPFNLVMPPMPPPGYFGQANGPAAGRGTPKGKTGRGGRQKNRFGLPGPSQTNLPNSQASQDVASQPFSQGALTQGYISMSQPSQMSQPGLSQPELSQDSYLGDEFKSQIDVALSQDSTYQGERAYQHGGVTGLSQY
UniProt Q96BD8: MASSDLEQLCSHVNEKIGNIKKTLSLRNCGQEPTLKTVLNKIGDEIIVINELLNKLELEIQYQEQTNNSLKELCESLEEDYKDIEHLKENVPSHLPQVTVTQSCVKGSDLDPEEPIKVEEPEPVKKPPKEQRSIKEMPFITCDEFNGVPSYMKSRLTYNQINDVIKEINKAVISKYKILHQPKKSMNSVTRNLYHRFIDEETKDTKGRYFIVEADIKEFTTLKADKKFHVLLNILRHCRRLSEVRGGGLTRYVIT

Compound: COC(=O)/C=C/c1ccccc1 [methyl cinnamate]
Assay: log2 ratio of iodoacetamide-alkyne labeling of the cysteine site, DMSO over compound (competition); higher = stronger covalent engagement of the cysteine by the compound, active = 1 or more
Settings: 500 µM; treatment time 1 h; system: HEK293T cell lysate
How it was run: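 HEK293T lysate (2 mg/mL) was incubated with electrophile (500 µM) or vehicle for 1 h at ambient temperature and then with iodoacetamide alkyne for 1 h. Labelled proteins were clicked to sCIP-TMT reagents, pooled, digested, enriched on streptavidin and measured by Orbitrap Eclipse LC-MS/MS with FAIMS, with FragPipe quantification. The per-cysteine log2 competition ratio is mean control-channel reporter intensity over mean compound-channel reporter intensity. Across three replicates with duplicate channels, cysteines quantified in only one replicate were excluded.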

log2 ratio of iodoacetamide-alkyne labeling, inactive:
UniProt Q96HE7_C241 -0.0391, NUP205 C1662 (UniProt Q92621) 0.035, RAD50 C102 (UniProt Q92878) 0.715, LIN37 C28 (UniProt Q96GY3) -0.0469, USP9X C1174 (UniProt Q93008) 0.0539, GPKOW C394 (UniProt Q92917) 0.198, UniProt Q92615_C633 0.406, TBRG4 C246 (UniProt Q969Z0) -0.13, USP9X C842 (UniProt Q93008) 0.147, RPL36AL C15 (UniProt Q969Q0) 0.0617, DAZAP1 C85 (UniProt Q96EP5) 0.0538, NUP205 C877 (UniProt Q92621) 0.0547, UniProt Q92841_C270 0.0872, UPF1 C657 (UniProt Q92900) -0.0169, UniProt Q96BD8_C10 0.186
